Assay results taken from PubChem BioAssay AID2783 (National Center for Advancing Translational Sciences (NCATS), 2010).
Inconclusive means that the source gave no clear call. Such entries were picked first, then a sample of the others. A potency beside an inconclusive call is a rough fit, not a confirmed value. “Side channel” marks fits to a control or component signal instead of the main read-out. Activity calls are given as the source filed them. Calls follow the shape of the dose curve; as a rule, active = well fitted inhibition curve with a large enough effect in the polarisation, with a control signal flat (not every such curve was filed as active); inconclusive = small, poorly fitted or top-dose-only effect, or effect the other way, or a change in a side signal; inactive = no such curve, though single readings can be large or run the other way; the % refers to the polarisation.

The chains behind the UniProt entries cited, without tags or fusion partners.
UniProt Q03164, whole entry, looked up: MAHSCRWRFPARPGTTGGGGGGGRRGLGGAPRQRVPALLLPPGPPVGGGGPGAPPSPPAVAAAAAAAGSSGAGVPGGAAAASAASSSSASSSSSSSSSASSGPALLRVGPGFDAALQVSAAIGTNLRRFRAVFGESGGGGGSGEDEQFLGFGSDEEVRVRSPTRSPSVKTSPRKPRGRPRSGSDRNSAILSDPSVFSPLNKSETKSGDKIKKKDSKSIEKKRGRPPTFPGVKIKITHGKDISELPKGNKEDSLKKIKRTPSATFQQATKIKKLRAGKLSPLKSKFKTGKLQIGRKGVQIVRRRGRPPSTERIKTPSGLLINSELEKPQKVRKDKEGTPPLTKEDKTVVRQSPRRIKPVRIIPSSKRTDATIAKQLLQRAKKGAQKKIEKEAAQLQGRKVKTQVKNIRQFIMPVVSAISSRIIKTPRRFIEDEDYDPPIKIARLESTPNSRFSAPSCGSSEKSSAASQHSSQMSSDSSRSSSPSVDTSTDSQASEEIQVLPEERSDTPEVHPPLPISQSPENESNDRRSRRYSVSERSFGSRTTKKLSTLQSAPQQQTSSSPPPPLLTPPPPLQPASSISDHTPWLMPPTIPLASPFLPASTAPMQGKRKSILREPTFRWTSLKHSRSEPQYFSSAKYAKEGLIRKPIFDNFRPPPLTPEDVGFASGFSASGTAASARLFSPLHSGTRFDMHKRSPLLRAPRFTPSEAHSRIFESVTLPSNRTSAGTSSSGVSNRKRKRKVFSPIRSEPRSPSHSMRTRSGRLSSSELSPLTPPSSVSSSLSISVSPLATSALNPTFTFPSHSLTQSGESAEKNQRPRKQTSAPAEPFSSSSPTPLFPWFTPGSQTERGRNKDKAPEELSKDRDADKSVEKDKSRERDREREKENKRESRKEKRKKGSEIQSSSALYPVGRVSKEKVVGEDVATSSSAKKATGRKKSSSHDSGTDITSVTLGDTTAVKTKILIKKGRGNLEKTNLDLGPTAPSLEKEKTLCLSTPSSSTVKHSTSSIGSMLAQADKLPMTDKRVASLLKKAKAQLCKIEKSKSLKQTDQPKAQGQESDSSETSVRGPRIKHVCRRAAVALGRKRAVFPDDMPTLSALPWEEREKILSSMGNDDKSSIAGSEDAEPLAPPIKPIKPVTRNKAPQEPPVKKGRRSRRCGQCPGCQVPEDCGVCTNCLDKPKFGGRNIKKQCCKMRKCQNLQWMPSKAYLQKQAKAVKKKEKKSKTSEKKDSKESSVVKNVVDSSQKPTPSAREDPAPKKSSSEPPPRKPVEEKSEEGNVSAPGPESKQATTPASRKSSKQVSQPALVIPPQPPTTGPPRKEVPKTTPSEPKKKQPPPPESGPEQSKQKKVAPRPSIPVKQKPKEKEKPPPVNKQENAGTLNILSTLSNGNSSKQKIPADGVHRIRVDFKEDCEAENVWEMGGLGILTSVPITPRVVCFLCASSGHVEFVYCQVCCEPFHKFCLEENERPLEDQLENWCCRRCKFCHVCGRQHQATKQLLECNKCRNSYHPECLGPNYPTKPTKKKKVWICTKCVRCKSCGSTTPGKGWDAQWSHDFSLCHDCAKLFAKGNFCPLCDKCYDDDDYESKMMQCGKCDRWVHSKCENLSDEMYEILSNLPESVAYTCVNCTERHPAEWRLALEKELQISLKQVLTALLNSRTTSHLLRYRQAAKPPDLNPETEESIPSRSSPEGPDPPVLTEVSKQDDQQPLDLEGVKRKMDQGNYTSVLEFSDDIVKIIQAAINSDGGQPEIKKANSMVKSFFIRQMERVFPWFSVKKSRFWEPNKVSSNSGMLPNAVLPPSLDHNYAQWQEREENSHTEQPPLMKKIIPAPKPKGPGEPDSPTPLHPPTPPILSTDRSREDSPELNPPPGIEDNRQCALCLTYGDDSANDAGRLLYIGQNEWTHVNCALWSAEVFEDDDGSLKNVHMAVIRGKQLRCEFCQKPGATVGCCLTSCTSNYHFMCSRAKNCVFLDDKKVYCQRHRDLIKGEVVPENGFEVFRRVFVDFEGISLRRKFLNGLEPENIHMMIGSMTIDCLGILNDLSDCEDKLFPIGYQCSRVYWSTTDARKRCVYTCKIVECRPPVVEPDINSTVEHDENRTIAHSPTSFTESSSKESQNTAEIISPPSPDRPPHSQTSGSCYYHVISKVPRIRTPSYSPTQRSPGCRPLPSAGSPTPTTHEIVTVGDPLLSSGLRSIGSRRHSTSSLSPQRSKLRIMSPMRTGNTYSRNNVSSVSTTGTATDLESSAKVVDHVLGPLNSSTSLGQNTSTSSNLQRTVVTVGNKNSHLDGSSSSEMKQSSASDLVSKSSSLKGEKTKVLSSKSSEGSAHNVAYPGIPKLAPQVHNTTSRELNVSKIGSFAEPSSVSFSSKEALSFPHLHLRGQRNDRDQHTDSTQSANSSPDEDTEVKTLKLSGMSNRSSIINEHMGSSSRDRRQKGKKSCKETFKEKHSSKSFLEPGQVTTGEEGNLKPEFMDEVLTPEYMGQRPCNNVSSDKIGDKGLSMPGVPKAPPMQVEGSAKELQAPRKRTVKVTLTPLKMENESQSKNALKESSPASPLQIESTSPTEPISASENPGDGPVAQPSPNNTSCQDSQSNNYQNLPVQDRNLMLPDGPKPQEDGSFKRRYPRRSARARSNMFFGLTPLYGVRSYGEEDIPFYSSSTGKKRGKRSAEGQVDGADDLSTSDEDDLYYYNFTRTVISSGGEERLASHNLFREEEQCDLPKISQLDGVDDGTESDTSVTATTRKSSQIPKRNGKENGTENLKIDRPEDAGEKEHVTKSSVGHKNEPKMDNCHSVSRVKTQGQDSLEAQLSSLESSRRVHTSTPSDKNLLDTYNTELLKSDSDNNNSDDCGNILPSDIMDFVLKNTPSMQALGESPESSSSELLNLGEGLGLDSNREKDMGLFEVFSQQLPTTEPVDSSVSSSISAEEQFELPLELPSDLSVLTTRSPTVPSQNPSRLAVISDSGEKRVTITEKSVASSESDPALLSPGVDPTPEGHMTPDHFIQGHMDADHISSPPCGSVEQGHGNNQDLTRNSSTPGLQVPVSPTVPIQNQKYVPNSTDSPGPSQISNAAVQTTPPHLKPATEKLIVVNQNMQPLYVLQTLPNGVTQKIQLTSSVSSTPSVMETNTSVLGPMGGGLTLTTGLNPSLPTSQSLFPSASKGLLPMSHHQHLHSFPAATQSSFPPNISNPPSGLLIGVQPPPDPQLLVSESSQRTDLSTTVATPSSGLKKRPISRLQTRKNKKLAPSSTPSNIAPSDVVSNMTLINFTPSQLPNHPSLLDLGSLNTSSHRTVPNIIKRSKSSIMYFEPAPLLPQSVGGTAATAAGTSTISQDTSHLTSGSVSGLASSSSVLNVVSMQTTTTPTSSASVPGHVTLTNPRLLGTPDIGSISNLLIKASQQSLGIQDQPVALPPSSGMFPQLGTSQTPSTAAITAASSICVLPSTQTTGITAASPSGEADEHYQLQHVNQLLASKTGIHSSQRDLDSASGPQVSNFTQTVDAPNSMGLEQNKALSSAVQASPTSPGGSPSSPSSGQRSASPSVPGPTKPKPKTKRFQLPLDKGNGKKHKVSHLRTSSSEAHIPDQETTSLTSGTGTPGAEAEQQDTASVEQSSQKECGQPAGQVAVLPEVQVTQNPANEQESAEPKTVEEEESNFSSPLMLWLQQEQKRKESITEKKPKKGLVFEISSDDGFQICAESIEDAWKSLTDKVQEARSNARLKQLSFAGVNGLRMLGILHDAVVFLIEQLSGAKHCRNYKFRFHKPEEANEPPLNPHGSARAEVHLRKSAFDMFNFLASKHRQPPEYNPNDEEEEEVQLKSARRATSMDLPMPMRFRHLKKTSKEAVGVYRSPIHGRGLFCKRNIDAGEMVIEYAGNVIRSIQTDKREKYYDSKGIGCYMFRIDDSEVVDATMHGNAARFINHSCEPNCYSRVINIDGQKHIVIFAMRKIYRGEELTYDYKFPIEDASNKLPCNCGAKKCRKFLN

Each compound was assayed against Histone-lysine N-methyltransferase 2A (Homo sapiens) (UniProt Q03164) (assay: Confirmation of Inhibitors Targeting the Menin-MLL Interaction in MLL Related Leukemias: Competition With Fluorescein Labeled MLL-derived Peptide). Conditions: Fluorescence polarization, fluorescein-MLL peptide displacement from menin.
Potency is read from the fitted curve at half-maximal effect.

SMILES	Potency
COc1cccc(C(C[N+](=O)[O-])c2c(C)[nH]n(-c3ccccc3)c2=O)c1 (stereo not given)	inconclusive: 316 µM [inhibitor, single point]
CC(=O)c1c(O)cc(O)cc1CC(=O)O	inconclusive: 71 µM [fluorescent, partial curve]
Cc1cc2[nH]c3c(c[n+](C)c4ccccc34)c2cc1C	inconclusive: 63.2 µM [quencher, partial curve]
CCN1C(=O)[C@@H]2C(C(=O)c3cnccn3)=NN[C@@H]2C1=O	inconclusive: 251 µM [inhibitor, single point]
CN1CCS/C1=C/C=C1/SC(=S)N(Cc2ccccc2)C1=O	inconclusive: 20 µM [fluorescent, side channel, full curve]
CCc1cc2c(N3CCN(C(=O)c4ccco4)CC3)ncnc2s1	active: 63.1 µM
Cc1cc2c(N)cccc2nn1	active: 141 µM
O=C(Nc1cc(Br)ccc1O)c1cc(-c2ccc3c(c2)OCO3)on1	inconclusive: 316 µM [quencher, side channel, partial curve]
O=C1c2ccc(O)c(O)c2C(=O)c2c(O)ccc(O)c21	inconclusive: 31.7 µM [quencher, side channel, full curve]
N#Cc1ccc(OCC(O)CN2CCN(C(c3ccccc3)c3ccccc3)CC2)cc1 (stereo not given)	inconclusive: 316 µM [inhibitor, partial curve]
CCCc1cc(=O)oc2c3c(c(Cl)cc12)OCN(CCCO)C3	inconclusive: 141 µM [fluorescent, partial curve]
CCc1nn(C)c2c(=O)c(=O)c2n(C)[nH]1	inconclusive: 224 µM [fluorescent, side channel, single point]
CCCC(c1nnnn1Cc1cccs1)N1CCN(C2CCCC2)CC1 (stereo not given)	inconclusive: 251 µM [inhibitor, partial curve]
CC(=O)NC1C(=O)N(CCN2CCOCC2)c2ccc(C)cc21 (stereo not given)	active: 79.6 µM
Cc1ccc[n+](-c2nc([O-])sc2/C=N/Nc2ccc([N+](=O)[O-])cc2)c1	inconclusive: 158 µM [fluorescent, side channel, partial curve]
CCOc1ccc(-c2nn(-c3ccccc3)cc2/C=C2\SC(N)=NC2=O)cc1C	inconclusive: 158 µM [fluorescent, side channel, partial curve]
O=C1C(=O)c2ncccc2-c2cccnc21	inconclusive: 158 µM [fluorescent, partial curve]
C/C(=N\Nc1ccc(Cl)c(C(=O)O)c1)c1ccc[nH]1	inconclusive: 141 µM [fluorescent, side channel, partial curve]

SMILES	Potency
O=[N+]([O-])c1ccc(O)c(Nc2c([N+](=O)[O-])ccc3nonc23)c1	inconclusive: 398 µM [quencher, side channel, partial curve]
CCOC(=O)c1cnc2ccc(OC)cc2c1Nc1ccc(N2CCN(C)CC2)cc1	inconclusive: 398 µM [inhibitor, partial curve]
Cc1ccc2nc(-c3ccc(NC(=O)COC(=O)c4ccc(Br)o4)cc3)sc2c1	inconclusive: 158 µM [fluorescent, side channel, partial curve]
COc1ccccc1C(=O)Nc1ccnn1C1CCN(CC2CC=CCC2)CC1 (stereo not given)	inconclusive: 63.2 µM [inhibitor, partial curve]
Cc1ccc(Nc2nc(N)[nH]c(=O)c2N=O)cc1	inconclusive: 141 µM [fluorescent, side channel, partial curve]
O=c1[nH]nc(Cc2ccc(-c3ccc(Cl)cc3)o2)c2ccccc12	inconclusive: 224 µM [fluorescent, side channel, single point]
Cc1ccccc1CN1CCN(C(C)C(=O)NCc2ccccc2)CC1 (stereo not given)	inconclusive: 398 µM [inhibitor, partial curve]
O=C(O)CSc1cc(NS(=O)(=O)c2ccc(Br)cc2)c2ccccc2c1O	inconclusive: 71 µM [quencher, partial curve]
O=C(C[N+]12CC[N+](CC(=O)c3ccc(F)cc3)(CC1)CC2)c1ccc(F)cc1	active: 79.4 µM
Cc1sc2ncnc(NC3CCN(Cc4ccccc4)CC3)c2c1C	active: 63.1 µM
Cc1cc(N/N=C/c2ccc(O)cc2)c2cccc(C)c2n1	inconclusive: 251 µM [inhibitor, partial curve]
CS(=O)(=O)c1ccc2nc(NC(=O)Nc3cccc(Cl)c3)sc2c1	inconclusive: 89.1 µM [quencher, side channel, single point]
CC(=O)NC1C(=O)N(CCN2CCOCC2)c2ccc(F)cc21 (stereo not given)	inconclusive: 7.08 µM [inhibitor, full curve]
CC1CCCN(S(=O)(=O)c2ccc(C(=O)Nc3ccccc3-c3nc4ccccc4[nH]3)cc2)C1 (stereo not given)	inconclusive: 158 µM [quencher, side channel, single point]
CCc1cc2c(N3CCN(c4nnc(CC)s4)CC3)ncnc2s1	inconclusive: 1260 µM [quencher, side channel, partial curve]
Cc1cccc(NC(=S)NC(NC(=O)OCc2ccccc2)C(Cl)(Cl)Cl)c1 (stereo not given)	inconclusive: 631 µM [inhibitor, partial curve]
CC(=O)NC1C(=O)N(CCN2CCOCC2)c2ccc(Cl)cc21 (stereo not given)	inconclusive: 79.6 µM [inhibitor, single point]

Gathered by group: the entries above containing a thiophene ring, fused or not
SMILES	Potency
CCc1cc2c(N3CCN(C(=O)c4ccco4)CC3)ncnc2s1	active: 63.1 µM
CCCC(c1nnnn1Cc1cccs1)N1CCN(C2CCCC2)CC1 (stereo not given)	inconclusive: 251 µM [inhibitor, partial curve]
Cc1sc2ncnc(NC3CCN(Cc4ccccc4)CC3)c2c1C	active: 63.1 µM
CCc1cc2c(N3CCN(c4nnc(CC)s4)CC3)ncnc2s1	inconclusive: 1260 µM [quencher, side channel, partial curve]
